{"sequences": {"note": "Chains of the proteins cited; added tags and fusions are not shown.", "UniProt Q9ULZ3": "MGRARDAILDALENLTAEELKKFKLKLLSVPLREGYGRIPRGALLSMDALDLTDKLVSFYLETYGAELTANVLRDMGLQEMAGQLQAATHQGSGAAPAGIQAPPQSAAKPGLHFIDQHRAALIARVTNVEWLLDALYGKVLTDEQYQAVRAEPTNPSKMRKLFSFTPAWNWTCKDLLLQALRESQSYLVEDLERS"}, "source": "paper PMC6734172", "molecules": {"B1": {"name": "NAIP (NLR family, apoptosis inhibitory protein) (protein, UniProt Q13075-1 1-1403)", "chain": "MATQQKASDERISQFDHNLLPELSALLGLDAVQLAKELEEEEQKERAKMQKGYNSQMRSEAKRLKTFVTYEPYSSWIPQEMAAAGFYFTGVKSGIQCFCCSLILFGAGLTRLPIEDHKRFHPDCGFLLNKDVGNIAKYDIRVKNLKSRLRGGKMRYQEEEARLASFRNWPFYVQGISPCVLSEAGFVFTGKQDTVQCFSCGGCLGNWEEGDDPWKEHAKWFPKCEFLRSKKSSEEITQYIQSYKGFVDITGEHFVNSWVQRELPMASAYCNDSIFAYEELRLDSFKDWPRESAVGVAALAKAGLFYTGIKDIVQCFSCGGCLEKWQEGDDPLDDHTRCFPNCPFLQNMKSSAEVTPDLQSRGELCELLETTSESNLEDSIAVGPIVPEMAQGEAQWFQEAKNLNEQLRAAYTSASFRHMSLLDISSDLATDHLLGCDLSIASKHISKPVQEPLVLPEVFGNLNSVMCVEGEAGSGKTVLLKKIAFLWASGCCPLLNRFQLVFYLSLSSTRPDEGLASIICDQLLEKEGSVTEMCVRNIIQQLKNQVLFLLDDYKEICSIPQVIGKLIQKNHLSRTCLLIAVRTNRARDIRRYLETILEIKAFPFYNTVCILRKLFSHNMTRLRKFMVYFGKNQSLQKIQKTPLFVAAICAHWFQYPFDPSFDDVAVFKSYMERLSLRNKATAEILKATVSSCGELALKGFFSCCFEFNDDDLAEAGVDEDEDLTMCLMSKFTAQRLRPFYRFLSPAFQEFLAGMRLIELLDSDRQEHQDLGLYHLKQINSPMMTVSAYNNFLNYVSSLPSTKAGPKIVSHLLHLVDNKESLENISENDDYLKHQPEISLQMQLLRGLWQICPQAYFSMVSEHLLVLALKTAYQSNTVAACSPFVLQFLQGRTLTLGALNLQYFFDHPESLSLLRSIHFPIRGNKTSPRAHFSVLETCFDKSQVPTIDQDYASAFEPMNEWERNLAEKEDNVKSYMDMQRRASPDLSTGYWKLSPKQYKIPCLEVDVNDIDVVGQDMLEILMTVFSASQRIELHLNHSRGFIESIRPALELSKASVTKCSISKLELSAAEQELLLTLPSLESLEVSGTIQSQDQIFPNLDKFLCLKELSVDLEGNINVFSVIPEEFPNFHHMEKLLIQISAEYDPSKLVKLIQNSPNLHVFHLKCNFFSDFGSLMTMLVSCKKLTEIKFSDSFFQAVPFVASLPNFISLKILNLEGQQFPDEETSEKFAYILGSLSNLEELILPTGDGIYRVAKLIIQQCQQLHCLRVLSFFKTLNDDSVVEIAKVAISGGFQKLENLKLSINHKITEEGYRNFFQALDNMPNLQELDISRHFTECIKAQATTVKSLSQCVLRLPRLIRLNMLSWLLDADDIALLNVMKERHPQSKYLTILQKWILPFSPIIQK"}}, "key": {"[1]": {"molecular_target": "ASC (apoptosis associated speck-like protein containing caspase recruitment domain [CARD]) (human (endogenous in THP-1)) (UniProt Q9ULZ3)", "test": "co-IP; 500 ug cytoplasmic extract (RIPA buffer) of THP-1 derived macrophages infected with E. coli CFT073 (MOI 1:5, 6 h); 1 ug anti-ASC antibody and Protein A-Sepharose 4B beads overnight at 4 °C; washed thrice with RIPA buffer; blots for NLRP3, NLRC4 and NAIP"}, "[2]": {"molecular_target": "ASC (apoptosis associated speck-like protein containing caspase recruitment domain [CARD]) (human (endogenous in THP-1)) (UniProt Q9ULZ3)", "test": "co-IP; as a1, but cytoplasmic extract of resting (mock, no CFT073) THP-1 derived macrophages; anti-ASC antibody and Protein A-Sepharose 4B beads overnight at 4 °C; blots for NLRP3, NLRC4 and NAIP"}}, "note": "Results are given in words; binding and its absence hold for the method and conditions named. Binding seen in cells or lysates may run through a third protein. Some binding calls cover weakened binding; strength is not graded here."}
{"molecule": "NLRC4 (from UniProt Q9NPP4-1 1-1024)", "values": [{"measurement": "binding", "setting": "[1]", "value": "binds"}, {"measurement": "binding", "setting": "[2]", "value": "binds weakly"}]}
{"molecule": "B1", "values": [{"measurement": "binding", "setting": "[1]", "value": "binds"}, {"measurement": "binding", "setting": "[2]", "value": "binds weakly"}]}
